Earlier results as cited in patent US20060173067A1, “Small molecules for the treatment of atherosclerosis” (The Regents of the University of California, priority 2004, published 2006).

Tested on: CHO—C-19 cells
Conditions: ApoA-I/Cells; cited from earlier work

ApoA-I: lipid-free human apoA-I, the main protein in HDL, molecular weight of 28,000 Daltons
Bilayer dimension: 4.6 nm
Prominent Feature: Discoidal particles
Size "Nascent HDL Particles": 7.3 nm
Spacing between discoidal particles/bilayers: 1.9 nm
Vesicular structures: 34.7 nm
